Record: PubChem BioAssay AID1259308 (NCATS, 2017)

- Screen: 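Candidate targets for better recombinant protein yield in mammalian cells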 (primary screen)
- Cells: human HEK293 embryonic kidney cells stably expressing firefly luciferase (HEK-CMV-Luc2-Hygro)
- Reagent: single siRNA against human genes, 0.8 pmol siRNA per well
- Time to read-out: 72 h
- Measurement: 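Luciferase light (ONE-Glo) measured on one replicate plate set and viability (CellTiter-Glo) on the other, scaled to a negative control siRNA, with robust z-scores and luciferase per cell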
- Reading the numbers: total luciferase, z-score: higher = more reporter protein produced
- Call rule: 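An siRNA counts as active if its total luciferase robust z-score exceeds 3; genes with two or more such siRNAs out of three were retested with fresh siRNAs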
- Meaning of the calls: active = raised luciferase; inactive = no rise
The whole screen tested about 59,000 reagents; shown is a random part of them. About 1,510 of all reagents (2.6%) count as active. 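Calls use total luciferase alone and ignore viability, so some active siRNAs may act by altering cell number.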 A number with no mark means an inactive call. Reagents against one gene are numbered here. Further read-outs or replicates are left out here. No sequences are given here.

total luciferase, z-score, by gene knocked down and reagent
CSNK2B: #1 4.74 (active); #2 2.72; #3 2.49
SLC22A11: #1 -2.32; #2 -0.702; #3 0.688
ALK: #1 0.725; #2 -2.06; #3 -0.69
RAB24: #1 -0.0916; #2 -0.212; #3 0.0913
MIX23: #1 -0.597; #2 4.57 (active); #3 -1.17
ADD2: #1 -1.33; #2 -2.21; #3 -0.702
RPL23AP2: #1 1.32; #2 0.405; #3 0.645
ZNF160: #1 0.803; #2 -2.01; #3 -0.847
